Experimental findings from publication doi:10.1101/2022.12.21.521423 (bioRxiv, 2022) are described below.

By UniProt entry, the sequences of proteins in these tests, tags left out. Residues count along the entry.
UniProt Q96QE4, residues 28-905: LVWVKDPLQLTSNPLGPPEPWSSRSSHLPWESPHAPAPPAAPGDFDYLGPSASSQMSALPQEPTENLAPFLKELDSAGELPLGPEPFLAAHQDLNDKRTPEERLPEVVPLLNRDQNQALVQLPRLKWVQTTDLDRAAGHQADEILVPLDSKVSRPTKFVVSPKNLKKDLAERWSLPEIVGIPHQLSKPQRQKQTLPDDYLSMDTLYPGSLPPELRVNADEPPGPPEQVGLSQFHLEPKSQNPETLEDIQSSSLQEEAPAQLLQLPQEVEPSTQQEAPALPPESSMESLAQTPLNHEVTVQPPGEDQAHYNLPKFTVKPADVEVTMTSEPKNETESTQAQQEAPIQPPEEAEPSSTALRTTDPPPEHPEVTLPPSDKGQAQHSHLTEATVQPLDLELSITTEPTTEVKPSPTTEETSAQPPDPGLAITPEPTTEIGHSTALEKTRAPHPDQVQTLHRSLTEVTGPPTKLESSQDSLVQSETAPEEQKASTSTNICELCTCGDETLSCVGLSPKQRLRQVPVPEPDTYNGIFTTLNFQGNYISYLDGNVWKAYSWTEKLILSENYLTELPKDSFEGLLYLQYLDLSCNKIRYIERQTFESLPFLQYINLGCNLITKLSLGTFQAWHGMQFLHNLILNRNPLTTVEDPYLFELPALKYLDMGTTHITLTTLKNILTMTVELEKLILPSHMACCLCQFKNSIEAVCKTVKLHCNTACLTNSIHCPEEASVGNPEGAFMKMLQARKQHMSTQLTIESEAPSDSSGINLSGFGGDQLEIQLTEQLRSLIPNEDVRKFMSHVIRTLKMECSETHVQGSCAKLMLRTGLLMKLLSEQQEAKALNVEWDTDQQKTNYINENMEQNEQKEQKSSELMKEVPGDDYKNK

The chains are these.
B1: CDH11 ectodomain fused to an Fc domain (Fc fusion, UniProt P55287 54-617)
chain: GWVWNQFFVIEEYTGPDPVLVGRLHSDIDSGDGNIKYILSGEGAGTIFVIDDKSGNIHATKTLDREERAQYTLMAQAVDRDTNRPLEPPSEFIVKVQDINDNPPEFLHETYHANVPERSNVGTSVIQVTASDADDPTYGNSAKLVYSILEGQPYFSVEAQTGIIRTALPNMDREAKEEYHVVIQAKDMGGHMGGLSGTTKVTITLTDVNDNPPKFPQSVYQMSVSEAAVPGEEVGRVKAKDPDIGENGLVTYNIVDGDGMESFEITTDYETQEGVIKLKKPVDFETKRAYSLKVEAANVHIDPKFISNGPFKDTVTVKISVEDADEPPMFLAPSYIHEVQENAAAGTVVGRVHAKDPDAANSPIRYSIDRHTDLDRFFTINPEDGFIKTTKPLDREETAWLNITVFAAEIHNRHQEAKVPVAIRVLDVNDNAPKFAAPYEGFICESDQTKPLSNQPIVTISADDKDDTANGPRFIFSLPPEIIHNPNFTVRDNRDNTAGVYARRGGFSRQKQDLYLLPIVISDGGIPPMSSTNTLTIKVCGCDVNGALLSCNAEAYILNAGLST
B2: SLITRK1 ectodomain fused to an Fc domain (Fc fusion, UniProt Q96PX8 18-622)
chain: NVTGDVCKEKICSCNEIEGDLHVDCEKKGFTSLQRFTAPTSQFYHLFLHGNSLTRLFPNEFANFYNAVSLHMENNGLHEIVPGAFLGLQLVKRLHINNNKIKSFRKQTFLGLDDLEYLQADFNLLRDIDPGAFQDLNKLEVLILNDNLISTLPANVFQYVPITHLDLRGNRLKTLPYEEVLEQIPGIAEILLEDNPWDCTCDLLSLKEWLENIPKNALIGRVVCEAPTRLQGKDLNETTEQDLCPLKNRVDSSLPAPPAQEETFAPGPLPTPFKTNGQEDHATPGSAPNGGTKIPGNWQIKIRPTAAIATGSSRNKPLANSLPCPGGCSCDHIPGSGLKMNCNNRNVSSLADLKPKLSNVQELFLRDNKIHSIRKSHFVDYKNLILLDLGNNNIATVENNTFKNLLDLRWLYMDSNYLDTLSREKFAGLQNLEYLNVEYNAIQLILPGTFNAMPKLRILILNNNLLRSLPVDVFAGVSLSKLSLHNNYFMYLPVAGVLDQLTSIIQIDLHGNPWECSCTIVPFKQWAERLGSEVLMSDLKCETPVNFFRKDFMLLSNDEICPQLYARISPTLTSHSKNSTGLAETGTHSNSYLDTSRVSISVLVP
B3: ITGA6 ectodomain fused to an Fc domain (Fc fusion, UniProt P23229 24-1050)
chain: FNLDTREDNVIRKYGDPGSLFGFSLAMHWQLQPEDKRLLLVGAPRAEALPLQRANRTGGLYSCDITARGPCTRIEFDNDADPTSESKEDQWMGVTVQSQGPGGKVVTCAHRYEKRQHVNTKQESRDIFGRCYVLSQNLRIEDDMDGGDWSFCDGRLRGHEKFGSCQQGVAATFTKDFHYIVFGAPGTYNWKGIVRVEQKNNTFFDMNIFEDGPYEVGGETEHDESLVPVPANSYLGLLFLTSVSYTDPDQFVYKTRPPREQPDTFPDVMMNSYLGFSLDSGKGIVSKDEITFVSGAPRANHSGAVVLLKRDMKSAHLLPEHIFDGEGLASSFGYDVAVVDLNKDGWQDIVIGAPQYFDRDGEVGGAVYVYMNQQGRWNNVKPIRLNGTKDSMFGIAVKNIGDINQDGYPDIAVGAPYDDLGKVFIYHGSANGINTKPTQVLKGISPYFGYSIAGNMDLDRNSYPDVAVGSLSDSVTIFRSRPVINIQKTITVTPNRIDLRQKTACGAPSGICLQVKSCFEYTANPAGYNPSISIVGTLEAEKERRKSGLSSRVQFRNQGSEPKYTQELTLKRQKQKVCMEETLWLQDNIRDKLRPIPITASVEIQEPSSRRRVNSLPEVLPILNSDEPKTAHIDVHFLKEGCGDDNVCNSNLKLEYKFCTREGNQDKFSYLPIQKGVPELVLKDQKDIALEITVTNSPSNPRNPTKDGDDAHEAKLIATFPDTLTYSAYRELRAFPEKQLSCVANQNGSQADCELGNPFKRNSNVTFYLVLSTTEVTFDTPDLDINLKLETTSNQDNLAPITAKAKVVIELLLSVSGVAKPSQVYFGGTVVGEQAMKSEDEVGSLIEYEFRVINLGKPLTNLGTATLNIQWPKEISNGKWLLYLVKVESKGLEKVTCEPQKEINSLNLTESHNSRKKREITEKQIDDNRKFSLFAERKYQTLNCSVNVNCVNIRCPLRGLDSKASLILRSRLWNSTFLEEYSKLNYLDILMRAFIDVTAAAENIRLPNAGTQVRVTVFPSKTVAQYS
B4: NFASC ectodomain fused to an Fc domain (Fc fusion, UniProt O94856 25-1217)
chain: IEIPMDPSIQNELTQPPTITKQSAKDHIVDPRDNILIECEAKGNPAPSFHWTRNSRFFNIAKDPRVSMRRRSGTLVIDFRSGGRPEEYEGEYQCFARNKFGTALSNRIRLQVSKSPLWPKENLDPVVVQEGAPLTLQCNPPPGLPSPVIFWMSSSMEPITQDKRVSQGHNGDLYFSNVMLQDMQTDYSCNARFHFTHTIQQKNPFTLKVLTTRGVAERTPSFMYPQGTASSQMVLRGMDLLLECIASGVPTPDIAWYKKGGDLPSDKAKFENFNKALRITNVSEEDSGEYFCLASNKMGSIRHTISVRVKAAPYWLDEPKNLILAPGEDGRLVCRANGNPKPTVQWMVNGEPLQSAPPNPNREVAGDTIIFRDTQISSRAVYQCNTSNEHGYLLANAFVSVLDVPPRMLSPRNQLIRVILYNRTRLDCPFFGSPIPTLRWFKNGQGSNLDGGNYHVYENGSLEIKMIRKEDQGIYTCVATNILGKAENQVRLEVKDPTRIYRMPEDQVARRGTTVQLECRVKHDPSLKLTVSWLKDDEPLYIGNRMKKEDDSLTIFGVAERDQGSYTCVASTELDQDLAKAYLTVLADQATPTNRLAALPKGRPDRPRDLELTDLAERSVRLTWIPGDANNSPITDYVVQFEEDQFQPGVWHDHSKYPGSVNSAVLRLSPYVNYQFRVIAINEVGSSHPSLPSERYRTSGAPPESNPGDVKGEGTRKNNMEITWTPMNATSAFGPNLRYIVKWRRRETREAWNNVTVWGSRYVVGQTPVYVPYEIRVQAENDFGKGPEPESVIGYSGEDYPRAAPTEVKVRVMNSTAISLQWNRVYSDTVQGQLREYRAYYWRESSLLKNLWVSQKRQQASFPGDRLRGVVSRLFPYSNYKLEMVVVNGRGDGPRSETKEFTTPEGVPSAPRRFRVRQPNLETINLEWDHPEHPNGIMIGYTLKYVAFNGTKVGKQIVENFSPNQTKFTVQRTDPVSRYRFTLSARTQVGSGEAVTEESPAPPNEATPTAAPPTLPPTTVGATGAVSSTDATAIAATTEATTVPIIPTVAPTTIATTTTVATTTTTTAAATTTTESPPTTTSGTKIHESAPDEQSIWNVTVLPNSKWANITWKHNFGPGTDFVVEYIDSNHTKKTVPVKAQAQPIQLTDLYPGMTYTLRVYSRDNEGISSTVITFMTSTAYTNNQADIATQGW
B5: PCDH19 ectodomain fused to an Fc domain (Fc fusion, UniProt Q8TAB3 22-678)
chain: LINLKYSVEEEQRAGTVIANVAKDAREAGFALDPRQASAFRVVSNSAPHLVDINPSSGLLVTKQKIDRDLLCRQSPKCIISLEVMSSSMEICVIKVEIKDLNDNAPSFPAAQIELEISEAASPGTRIPLDSAYDPDSGSFGVQTYELTPNELFGLEIKTRGDGSRFAELVVEKSLDRETQSHYSFRITALDGGDPPRLGTVGLSIKVTDSNDNNPVFSESTYAVSVPENSPPNTPVIRLNASDPDEGTNGQVVYSFYGYVNDRTRELFQIDPHSGLVTVTGALDYEEGHVYELDVQAKDLGPNSIPAHCKVTVSVLDTNDNPPVINLLSVNSELVEVSESAPPGYVIALVRVSDRDSGLNGRVQCRLLGNVPFRLQEYESFSTILVDGRLDREQHDQYNLTIQARDGGVPMLQSAKSFTVLITDENDNHPHFSKPYYQVIVQENNTPGAYLLSVSARDPDLGLNGSVSYQIVPSQVRDMPVFTYVSINPNSGDIYALRSFNHEQTKAFEFKVLAKDGGLPSLQSNATVRVIILDVNDNTPVITAPPLINGTAEVYIPRNSGIGYLVTVVKAEDYDEGENGRVTYDMTEGDRGFFEIDQVNGEVRTTRTFGESSKSSYELIVVAHDHGKTSLSASALVLIYLSPALDAQESMGSVNLS

Results are given in words; binding and its absence hold for the method and conditions named. Tags and fused reporters may be left off the sequences shown.

The test concerns the target LRRC37B_ECTO fused with alkaline phosphatase (human) (UniProt Q96QE4). The experiment in a line: ELISA. (In general: ELISA stands for enzyme-linked immunosorbent assay.)
On to B1, for which the binding result was “no binding”.

With B2, the binding result was “no binding”.

As for B3, the binding entry was “no binding”.

With B4, the binding result is listed as “no binding”.

On to B5, for which the binding result was “no binding”.
